Measured values from the supplement of paper PMC10849652.
The list shows a part of the results.

Amino acid sequences for entries named in this document (tags omitted). A change or cut given only in a name is not applied to a line headed by its entry.
UniProt Q8WY22: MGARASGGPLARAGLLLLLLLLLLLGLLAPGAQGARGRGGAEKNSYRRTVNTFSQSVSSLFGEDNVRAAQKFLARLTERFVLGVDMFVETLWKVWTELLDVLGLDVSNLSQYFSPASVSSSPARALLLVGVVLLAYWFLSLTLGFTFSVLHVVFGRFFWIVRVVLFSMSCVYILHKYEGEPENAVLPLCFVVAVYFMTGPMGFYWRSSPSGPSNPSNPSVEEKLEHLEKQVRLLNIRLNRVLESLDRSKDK
UniProt Q6W2J9: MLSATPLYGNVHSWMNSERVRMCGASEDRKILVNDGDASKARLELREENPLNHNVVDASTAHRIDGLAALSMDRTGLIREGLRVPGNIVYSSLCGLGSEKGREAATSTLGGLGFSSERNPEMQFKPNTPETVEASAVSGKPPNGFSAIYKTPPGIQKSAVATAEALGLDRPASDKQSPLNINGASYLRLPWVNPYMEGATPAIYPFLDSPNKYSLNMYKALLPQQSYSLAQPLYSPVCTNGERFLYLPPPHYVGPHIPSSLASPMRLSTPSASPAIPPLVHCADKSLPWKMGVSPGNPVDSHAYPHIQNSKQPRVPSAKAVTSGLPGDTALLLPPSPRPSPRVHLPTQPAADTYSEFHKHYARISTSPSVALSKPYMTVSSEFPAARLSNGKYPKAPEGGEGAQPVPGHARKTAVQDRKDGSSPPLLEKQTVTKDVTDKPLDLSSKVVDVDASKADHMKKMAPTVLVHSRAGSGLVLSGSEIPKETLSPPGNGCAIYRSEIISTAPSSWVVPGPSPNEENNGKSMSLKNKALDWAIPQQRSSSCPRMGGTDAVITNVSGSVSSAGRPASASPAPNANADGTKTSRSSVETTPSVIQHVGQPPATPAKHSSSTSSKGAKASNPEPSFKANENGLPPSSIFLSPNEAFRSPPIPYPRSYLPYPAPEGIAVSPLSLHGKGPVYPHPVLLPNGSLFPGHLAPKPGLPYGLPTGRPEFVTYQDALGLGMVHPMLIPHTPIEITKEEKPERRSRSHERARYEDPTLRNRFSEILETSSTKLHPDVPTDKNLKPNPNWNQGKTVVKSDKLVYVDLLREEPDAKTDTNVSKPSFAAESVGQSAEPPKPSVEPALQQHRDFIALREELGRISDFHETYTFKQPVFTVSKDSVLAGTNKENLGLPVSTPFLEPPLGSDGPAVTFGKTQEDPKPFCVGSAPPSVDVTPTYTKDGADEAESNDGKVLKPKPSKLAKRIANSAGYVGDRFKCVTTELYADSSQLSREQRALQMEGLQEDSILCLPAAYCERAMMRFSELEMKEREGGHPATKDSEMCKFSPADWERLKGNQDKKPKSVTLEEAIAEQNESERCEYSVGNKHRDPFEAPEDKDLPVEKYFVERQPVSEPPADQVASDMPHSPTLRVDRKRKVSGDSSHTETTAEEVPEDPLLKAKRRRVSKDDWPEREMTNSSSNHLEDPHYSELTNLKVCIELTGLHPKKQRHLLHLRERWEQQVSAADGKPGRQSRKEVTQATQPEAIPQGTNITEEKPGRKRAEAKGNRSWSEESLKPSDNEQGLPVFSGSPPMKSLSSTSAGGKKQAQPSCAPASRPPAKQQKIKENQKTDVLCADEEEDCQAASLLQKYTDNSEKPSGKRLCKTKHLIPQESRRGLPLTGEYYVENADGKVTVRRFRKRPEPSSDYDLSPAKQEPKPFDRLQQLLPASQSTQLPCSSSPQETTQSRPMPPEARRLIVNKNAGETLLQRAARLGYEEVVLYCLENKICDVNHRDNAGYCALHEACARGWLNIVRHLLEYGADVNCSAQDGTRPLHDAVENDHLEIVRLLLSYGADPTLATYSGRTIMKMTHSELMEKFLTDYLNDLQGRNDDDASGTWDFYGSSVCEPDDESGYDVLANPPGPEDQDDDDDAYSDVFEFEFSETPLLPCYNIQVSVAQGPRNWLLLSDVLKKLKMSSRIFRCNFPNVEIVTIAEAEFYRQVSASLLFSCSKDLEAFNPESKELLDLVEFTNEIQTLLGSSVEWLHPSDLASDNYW
UniProt Q12983, whole entry, looked up: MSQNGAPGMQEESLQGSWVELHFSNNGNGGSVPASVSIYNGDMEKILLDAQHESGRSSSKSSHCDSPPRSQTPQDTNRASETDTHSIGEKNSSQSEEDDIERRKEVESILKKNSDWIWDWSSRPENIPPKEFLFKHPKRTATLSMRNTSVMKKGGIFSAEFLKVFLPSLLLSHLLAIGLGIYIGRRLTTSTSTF
UniProt O14981: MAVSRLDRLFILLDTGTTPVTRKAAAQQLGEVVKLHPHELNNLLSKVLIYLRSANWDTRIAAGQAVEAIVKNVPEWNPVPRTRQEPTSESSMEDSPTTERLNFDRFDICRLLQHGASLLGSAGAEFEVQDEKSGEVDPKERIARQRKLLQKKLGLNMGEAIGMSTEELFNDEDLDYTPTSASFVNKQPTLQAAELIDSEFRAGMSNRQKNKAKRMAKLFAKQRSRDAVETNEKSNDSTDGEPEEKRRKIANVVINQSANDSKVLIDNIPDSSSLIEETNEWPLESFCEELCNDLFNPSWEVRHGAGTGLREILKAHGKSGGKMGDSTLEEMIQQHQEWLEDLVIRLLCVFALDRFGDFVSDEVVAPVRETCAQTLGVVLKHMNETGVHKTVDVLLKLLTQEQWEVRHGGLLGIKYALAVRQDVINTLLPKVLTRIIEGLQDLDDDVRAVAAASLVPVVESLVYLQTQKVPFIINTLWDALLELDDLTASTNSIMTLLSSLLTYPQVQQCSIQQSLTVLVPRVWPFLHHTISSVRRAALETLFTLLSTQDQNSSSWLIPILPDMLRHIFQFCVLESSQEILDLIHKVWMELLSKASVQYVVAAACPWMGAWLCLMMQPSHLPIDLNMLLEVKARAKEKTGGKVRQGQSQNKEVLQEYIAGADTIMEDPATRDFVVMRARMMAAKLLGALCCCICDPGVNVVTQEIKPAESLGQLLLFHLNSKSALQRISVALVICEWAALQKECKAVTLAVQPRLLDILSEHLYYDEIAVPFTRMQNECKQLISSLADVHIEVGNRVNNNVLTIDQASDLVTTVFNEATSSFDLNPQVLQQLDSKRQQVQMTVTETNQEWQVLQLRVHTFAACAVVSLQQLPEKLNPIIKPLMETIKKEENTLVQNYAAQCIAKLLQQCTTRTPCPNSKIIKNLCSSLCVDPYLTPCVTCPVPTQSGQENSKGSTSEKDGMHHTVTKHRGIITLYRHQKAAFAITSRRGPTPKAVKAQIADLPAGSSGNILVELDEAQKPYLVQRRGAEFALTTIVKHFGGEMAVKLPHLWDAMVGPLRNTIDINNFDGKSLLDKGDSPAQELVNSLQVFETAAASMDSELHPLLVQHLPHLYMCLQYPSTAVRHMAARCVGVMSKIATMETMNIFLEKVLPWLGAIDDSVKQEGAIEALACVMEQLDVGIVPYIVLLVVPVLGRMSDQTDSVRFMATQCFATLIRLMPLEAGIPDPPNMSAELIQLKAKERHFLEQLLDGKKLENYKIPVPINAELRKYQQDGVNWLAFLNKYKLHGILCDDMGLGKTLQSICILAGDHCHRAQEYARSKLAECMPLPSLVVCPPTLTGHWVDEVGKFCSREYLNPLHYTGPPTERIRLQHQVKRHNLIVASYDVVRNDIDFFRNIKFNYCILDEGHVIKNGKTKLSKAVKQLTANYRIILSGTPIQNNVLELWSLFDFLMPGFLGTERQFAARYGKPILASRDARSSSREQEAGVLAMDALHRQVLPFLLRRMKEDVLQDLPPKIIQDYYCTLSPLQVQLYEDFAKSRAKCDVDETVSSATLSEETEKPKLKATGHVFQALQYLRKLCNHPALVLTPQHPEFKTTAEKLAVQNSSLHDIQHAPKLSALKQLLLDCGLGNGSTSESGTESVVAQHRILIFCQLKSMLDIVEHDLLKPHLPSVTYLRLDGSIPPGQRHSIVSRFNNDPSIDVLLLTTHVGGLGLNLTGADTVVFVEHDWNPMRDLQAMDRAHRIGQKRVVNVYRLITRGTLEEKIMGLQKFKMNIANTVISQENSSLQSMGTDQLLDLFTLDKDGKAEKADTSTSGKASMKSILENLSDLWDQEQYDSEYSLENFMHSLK
UniProt Q96DR5: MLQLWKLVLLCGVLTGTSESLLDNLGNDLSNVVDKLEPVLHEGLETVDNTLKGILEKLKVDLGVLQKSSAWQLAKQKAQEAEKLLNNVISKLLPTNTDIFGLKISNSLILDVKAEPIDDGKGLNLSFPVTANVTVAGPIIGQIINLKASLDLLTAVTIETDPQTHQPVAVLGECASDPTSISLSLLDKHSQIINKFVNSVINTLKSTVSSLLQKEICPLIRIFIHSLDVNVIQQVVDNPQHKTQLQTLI
UniProt O43505: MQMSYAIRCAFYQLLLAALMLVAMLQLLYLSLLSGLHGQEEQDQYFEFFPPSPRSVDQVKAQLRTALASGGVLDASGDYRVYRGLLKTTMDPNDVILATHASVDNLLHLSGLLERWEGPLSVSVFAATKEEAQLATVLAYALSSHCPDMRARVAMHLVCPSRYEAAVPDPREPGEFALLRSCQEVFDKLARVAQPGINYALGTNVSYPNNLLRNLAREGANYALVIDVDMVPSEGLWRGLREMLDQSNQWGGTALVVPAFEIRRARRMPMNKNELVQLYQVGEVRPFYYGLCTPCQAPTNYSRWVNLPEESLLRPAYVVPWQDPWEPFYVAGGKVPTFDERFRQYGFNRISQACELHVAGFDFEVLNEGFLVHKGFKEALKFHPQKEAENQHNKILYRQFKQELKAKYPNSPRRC
UniProt Q96B45: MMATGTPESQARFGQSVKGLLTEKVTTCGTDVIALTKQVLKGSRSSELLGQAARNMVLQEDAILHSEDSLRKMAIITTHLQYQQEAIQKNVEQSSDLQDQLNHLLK
UniProt Q9NRL2: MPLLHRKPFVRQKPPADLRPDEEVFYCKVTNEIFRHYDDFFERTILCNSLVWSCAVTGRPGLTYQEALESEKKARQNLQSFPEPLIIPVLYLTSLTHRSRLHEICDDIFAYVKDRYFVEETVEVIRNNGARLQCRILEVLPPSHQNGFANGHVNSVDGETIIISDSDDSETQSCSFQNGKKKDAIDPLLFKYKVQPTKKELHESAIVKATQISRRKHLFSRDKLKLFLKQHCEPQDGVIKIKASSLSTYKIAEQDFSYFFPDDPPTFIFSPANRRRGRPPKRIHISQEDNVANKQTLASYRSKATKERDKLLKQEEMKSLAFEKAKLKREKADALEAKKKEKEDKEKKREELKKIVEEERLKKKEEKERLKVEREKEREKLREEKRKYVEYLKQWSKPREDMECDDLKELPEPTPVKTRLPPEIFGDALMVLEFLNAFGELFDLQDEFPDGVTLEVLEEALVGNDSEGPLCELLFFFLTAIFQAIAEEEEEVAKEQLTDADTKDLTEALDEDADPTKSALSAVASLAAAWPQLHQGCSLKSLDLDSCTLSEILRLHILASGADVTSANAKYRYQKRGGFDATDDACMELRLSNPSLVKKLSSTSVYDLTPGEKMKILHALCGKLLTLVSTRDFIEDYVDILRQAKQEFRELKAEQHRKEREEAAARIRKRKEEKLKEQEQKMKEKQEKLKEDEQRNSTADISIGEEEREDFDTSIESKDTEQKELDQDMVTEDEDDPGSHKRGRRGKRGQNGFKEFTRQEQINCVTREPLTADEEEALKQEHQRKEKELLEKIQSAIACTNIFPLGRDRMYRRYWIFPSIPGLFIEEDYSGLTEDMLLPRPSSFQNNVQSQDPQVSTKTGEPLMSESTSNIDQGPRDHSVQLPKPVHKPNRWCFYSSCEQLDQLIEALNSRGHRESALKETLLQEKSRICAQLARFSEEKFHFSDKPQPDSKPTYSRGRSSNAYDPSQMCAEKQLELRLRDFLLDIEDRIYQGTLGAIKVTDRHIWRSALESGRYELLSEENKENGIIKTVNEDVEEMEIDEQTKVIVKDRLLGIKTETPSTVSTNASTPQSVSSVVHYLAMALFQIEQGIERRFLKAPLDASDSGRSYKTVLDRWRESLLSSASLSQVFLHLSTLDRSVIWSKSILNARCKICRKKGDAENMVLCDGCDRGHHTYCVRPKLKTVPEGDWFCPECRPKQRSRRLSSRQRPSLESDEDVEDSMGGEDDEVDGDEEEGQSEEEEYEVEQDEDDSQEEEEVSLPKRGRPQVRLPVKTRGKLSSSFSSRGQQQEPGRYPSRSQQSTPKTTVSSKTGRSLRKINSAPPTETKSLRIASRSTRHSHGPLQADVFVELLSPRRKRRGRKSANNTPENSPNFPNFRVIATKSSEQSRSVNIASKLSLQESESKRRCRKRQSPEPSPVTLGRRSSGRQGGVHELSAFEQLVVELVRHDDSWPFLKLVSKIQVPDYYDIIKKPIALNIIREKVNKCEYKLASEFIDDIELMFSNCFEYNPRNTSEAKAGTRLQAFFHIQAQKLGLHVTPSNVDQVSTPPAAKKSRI

How the values were obtained:
Assay in all cases: log2 fold change, soluble protein after heating vs DMSO (PISA); higher = thermal stabilisation; K562 lysate, 10 uM; active = over 0.2 and 3.5 SD of the protein, either way, in both replicates (recomputed)
ibrutinib = compound: C=CC(=O)N1CCC[C@@H](n2nc(-c3ccc(Oc4ccccc4)cc3)c3c(N)ncnc32)C1 [ibrutinib]
Method in brief: (§1)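 To prepare the extract, K562 pellets were dounce-homogenised in PBS pH 7.4 with 1 mM MgCl2, giving crude material at 1 mg/mL protein. This was treated with 10 μM compound for 30 min, then heated in aliquots for 3 min over 48°C-58°C before pooling and addition of NP-40 to 0.5% at 4°C. Centrifugation at 21,000xg for 90 min left soluble protein in the supernatant, which TMTpro 16plex LC-MS/MS quantified with equalised channel sums. Results are log-two fold changes in thermal stability compared with solvent controls, from duplicates.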

[1] = compound: CC(=O)c1cnc2ccc(-c3cc(Cl)c(O)c(Cl)c3)nc2c1N[C@H]1CC[C@H](CN(C)C)CC1
Method in brief: as §1

ralimetinib = compound: CC(C)(C)Cn1c(N)nc2ccc(-c3[nH]c(C(C)(C)C)nc3-c3ccc(F)cc3)nc21 [ralimetinib]
Method in brief: as §1

[2] = compound: CC(C)(O)CC(=O)NCCn1ccc2ncnc(Nc3ccc(Oc4cccc(C(F)(F)F)c4)c(Cl)c3)c21
Method in brief: as §1

[3] = compound: CC(C)C1=C2N=C(C=C(N2N=C1)NCC3=CC=CC=C3)NCCCCCCN
Method in brief: as §1

[4] = compound: CC1=C(C(CC(=O)N1)C2=CC=C(C=C2)C(F)(F)F)C(=O)NC3=C(C=C4C(=C3)C=NN4)F
Method in brief: as §1

[5] = compound: CC1=C(C2=C(C=C1)C(=O)C3=CC=CC=C3N2CCCN)C
Method in brief: as §1

[6] = compound: CC1=C(C=C(C=C1)NC(=O)C2=CC(=CC=C2)C(C)(C)C#N)NC3=CC4=C(C=C3)N=CN(C4=O)C
Method in brief: as §1

[7] = compound: CC1=C(C=C(C=C1)NC(=O)C2=CC(=CC=C2)N(C)C)NC(=O)C3=CC=C(C=C3)O
Method in brief: as §1

[8] = compound: CC1=CC=C(C=C1)SC2=C3C=C(SC3=CN=C2)C(=O)N
Method in brief: as §1

Measured: log2 fold change

BOLA2 (UniProt Q9H3K6)
inactive: ibrutinib -0.01 | [1] 0.02 | ralimetinib -0.025 | [2] 0.008 | [3] -0.025 | [4] -0.059 | [5] 0.038 | [6] -0.029 | [7] -0.022 | [8] 0.039

BLVRB (UniProt P30043)
inactive: ibrutinib -0.046 | [1] 0.02 | ralimetinib -0.033 | [2] -0.041 | [3] 0.04 | [4] -0.009 | [5] 0.02 | [6] 0.034 | [7] 0.037 | [8] 0.004

BRD2 isoform 2 (UniProt P25440)
inactive: ibrutinib 0.074 | [1] -0.041 | ralimetinib -0.056 | [2] 0.021 | [3] 0.26 | [4] -0.025 | [5] 0.008 | [6] 0.056 | [7] 0.049 | [8] 0.105

BTD isoform 3 (UniProt P43251)
inactive: ibrutinib 0.032 | [1] -0.034 | ralimetinib 0.046 | [2] -0.104 | [3] -0.03 | [5] 0.014 | [6] -0.005 | [7] -0.057 | [8] -0.072

BRI3BP (UniProt Q8WY22)
inactive: ibrutinib -0.057 | [1] 0.096 | ralimetinib -0.005 | [2] 0.052 | [3] -0.121 | [4] -0.007 | [5] 0.056 | [7] -0.085 | [8] 0.006

BCOR (UniProt Q6W2J9)
inactive: ibrutinib 0.07 | [1] -0.078 | ralimetinib 0.032 | [2] 0.035 | [3] -0.124 | [4] 0.054 | [5] -0.051 | [6] 0.094 | [7] -0.018 | [8] 0.035

BNIP3 (UniProt Q12983)
inactive: ibrutinib 0.04 | [1] 0.048 | ralimetinib 0.032 | [2] 0.01 | [3] -0.002 | [4] -0.068 | [5] -0.002 | [6] 0.045 | [7] -0.047 | [8] 0.003

BRD8 isoform 2 (UniProt Q9H0E9)
inactive: ibrutinib 0.064 | [1] 0.015 | ralimetinib -0.02 | [2] -0.021 | [3] -0.005 | [4] -0.004 | [5] -0.022 | [6] 0.012 | [7] -0.007 | [8] -0.033

BTAF1 (UniProt O14981)
inactive: ibrutinib -0.016 | [1] -0.003 | ralimetinib 0.01 | [2] -0.008 | [3] 0.003 | [4] 0.018 | [5] 0.023 | [6] 0 | [7] 0.025 | [8] -0.012

B4GALT1 (UniProt P15291)
inactive: ibrutinib -0.001 | [1] 0.011 | ralimetinib 0.027 | [2] -0.123 | [3] 0.05 | [4] 0.05 | [6] -0.01 | [7] 0.013 | [8] 0.005

BLOC1S4 (UniProt Q9NUP1)
inactive: ibrutinib 0.067 | [1] -0.016 | ralimetinib 0.012 | [2] -0.007 | [3] 0.002 | [4] 0.093 | [5] 0.027 | [6] 0.027 | [7] -0.003 | [8] 0.003

BIRC6 (UniProt Q9NR09)
inactive: ibrutinib 0 | [1] -0.002 | ralimetinib 0.014 | [2] -0.015 | [3] -0.025 | [4] 0.008 | [5] 0 | [6] -0.018 | [7] -0.008 | [8] 0.006

BTN2A1 (UniProt Q7KYR7)
inactive: ibrutinib 0.01 | [1] -0.148 | ralimetinib -0.024 | [2] -0.096 | [3] -0.03 | [4] 0.056 | [5] -0.144 | [6] 0.064 | [7] -0.023 | [8] -0.014

BPIFA2 (UniProt Q96DR5)
inactive: ibrutinib -0.056 | [3] -0.079 | [4] 2.06

B4GAT1 (UniProt O43505)
inactive: ibrutinib 0.241 | ralimetinib 0.18 | [2] 0.384 | [3] -0.13 | [4] -0.173 | [5] -0.212 | [6] -0.05 | [7] 0.142

BPNT1 (UniProt A6NF51)
inactive: ibrutinib 0.116 | ralimetinib 0.02 | [2] -0.022 | [3] -0.09 | [5] -0.178 | [7] 0.07

BAZ2A (UniProt Q9UIF9)
inactive: [1] 0.009 | ralimetinib -0.013 | [2] 0.01 | [3] -0.013 | [4] -0.066 | [6] 0.004 | [7] 0.111 | [8] 0.378

BORCS7 (UniProt Q96B45)
inactive: ibrutinib -0.031 | [1] -0.122 | [3] -0.168 | [4] 0.046 | [6] 0.082 | [8] -0.013

BRD3 (UniProt Q15059)
inactive: ibrutinib -0.011 | [1] 0.04 | [3] 0.095 | [4] -0.054 | [5] -0.033 | [6] 0.059 | [8] -0.074

BAZ1A (UniProt Q9NRL2)
inactive: ibrutinib -0.042 | ralimetinib 0.043 | [2] -0.167 | [3] 0.002 | [4] 0.156 | [5] -0.013 | [6] -0.004 | [7] 0.002

BNIP2 (UniProt H7C096)
inactive: ibrutinib 0.073 | [1] -0.005 | [8] -0.024

BORA (UniProt Q6PGQ7)
inactive: ibrutinib 0.108 | ralimetinib 0.002 | [2] -0.033 | [3] 0.053 | [4] 0.006 | [5] 0.051 | [6] 0.078 | [7] -0.02

BCAS1 isoform 2 (UniProt O75363)
inactive: ibrutinib -0.013 | [1] -0.07 | ralimetinib -0.111 | [2] -0.409 | [4] -0.002 | [6] 0.09 | [7] -0.04 | [8] -0.093

BRMS1 (UniProt Q9HCU9)
inactive: [1] -0.026 | ralimetinib 0.05 | [2] -0.127 | [3] 0.017 | [4] -0.007 | [5] -0.012 | [6] -0.089 | [7] 0.04 | [8] -0.014

BCL2L11 (UniProt O43521)
inactive: ibrutinib 0.057 | [6] 0.167

BRCA2 (UniProt P51587)
inactive: ibrutinib -0.167 | ralimetinib -0.15 | [2] -0.021 | [3] -0.008 | [4] 0.088 | [5] -0.15 | [6] -0.003 | [7] 0.121

BTBD1 (UniProt Q9H0C5)
inactive: ibrutinib 0.022 | [3] -0.167 | [4] -0.027

BEND3 (UniProt Q5T5X7)
inactive: [1] 0.025 | ralimetinib -0.001 | [2] 0.015 | [3] 0.104 | [5] -0.118 | [6] 0.005 | [7] 0.017 | [8] -0.058

Reprinted from the entries so far (2 entries):
BRCA2 (UniProt P51587)
inactive: ibrutinib -0.167 | ralimetinib -0.15 | [2] -0.021 | [3] -0.008 | [4] 0.088 | [5] -0.15 | [6] -0.003 | [7] 0.121

BTBD1 (UniProt Q9H0C5)
inactive: ibrutinib 0.022 | [3] -0.167 | [4] -0.027

More entries

BAHD1 (UniProt Q8TBE0)
inactive: ibrutinib -0.194 | ralimetinib -0.011 | [2] -0.143 | [5] -0.199 | [6] -0.151 | [7] -0.01

BCL7C (UniProt Q8WUZ0)
inactive: ibrutinib -0.037 | [1] 0.051 | ralimetinib 0.239 | [2] -0.018 | [3] -0.094 | [5] 0.085 | [6] 0.066 | [7] 0.06 | [8] -0.073

BTBD10 isoform 2 (UniProt Q9BSF8)
inactive: ibrutinib 0.134 | [4] -0.068 | [5] -0.126 | [6] 0.043

BAD (UniProt Q92934)
inactive: ibrutinib 0.083 | ralimetinib 0.023 | [2] -0.002 | [3] 0.057 | [5] 0.084 | [6] 0.019 | [7] 0.014

BICRA (UniProt Q9NZM4)
inactive: ibrutinib -0.053 | [1] -0.093 | ralimetinib -0.138 | [2] -0.271 | [3] 0.102 | [5] -0.168 | [6] -0.012 | [7] -0.003 | [8] -0.156

BCL9 (UniProt O00512)
inactive: ibrutinib 0.043 | ralimetinib 0.009 | [2] -0.288 | [3] 0.056 | [6] -0.053 | [7] 0.055
